Source: the supplement of paper PMC8728848
The other results are listed elsewhere or left out.

Assays:
Test in all cases: glycan array binding signal (z-score within array); higher = stronger binding
Conditions in all cases: glycan notation: IUPAC condensed, linker removed
[1] = target: Man(a1-3)[Man(a1-6)]Man(a1-6)[Man(a1-2)Man(a1-3)]Man(b1-4)GlcNAc(b1-4)GlcNAc
In short: (§1)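 Glycan array data came from 3228 arrays in the Consortium for Functional Glycomics database, and only arrays with an available protein sequence were kept. Glycan names were put into IUPAC-condensed notation, and columns mapping to the same glycan were averaged. The binding signal is a within-array Z-score, averaged across arrays of one protein sequence run at different concentrations or buffers and across linkers. A negative Z-score can be read as non-binding.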

[2] = target: Man(a1-3)[Man(a1-6)]Man(a1-6)[Man(a1-3)]Man
In short: as §1

[3] = target: Man(a1-3)[Man(a1-6)]Man(a1-6)[Man(a1-3)]Man(b1-4)GlcNAc(b1-4)GlcNAc
In short: as §1

[4] = target: Man(a1-3)[Man(a1-6)]Man(b1-4)GlcNAc(b1-4)GlcNAc
In short: as §1

[5] = target: Man(a1-3)[Man(a1-6)]Man(b1-4)GlcNAc(b1-4)[Fuc(a1-6)]GlcNAc
In short: as §1

[6] = target: Man(a1-6)Man
In short: as §1

[7] = target: Man(b1-4)GlcNAc
In short: as §1

[8] = target: MurNAc(b1-4)GlcNAc
In short: as §1

[9] = target: Neu5Ac(a2-3)Gal
In short: as §1

[10] = target: Neu5Ac(a2-3)Gal(b1-3)GalNAc
In short: as §1

[11] = target: Neu5Ac(a2-3)Gal(b1-3)GalNAc(b1-3)Gal(a1-4)Gal(b1-4)Glc
In short: as §1

[12] = target: Neu5Ac(a2-3)Gal(b1-3)GalNAc(b1-4)[Neu5Ac(a2-3)]Gal(b1-4)Glc
In short: as §1

[13] = target: Neu5Ac(a2-3)Gal(b1-3)GalNAc(b1-4)[Neu5Ac(a2-8)Neu5Ac(a2-3)]Gal(b1-4)Glc
In short: as §1

[14] = target: Neu5Ac(a2-3)Gal(b1-3)GalNAc6S
In short: as §1

[15] = target: Neu5Ac(a2-3)Gal(b1-3)GlcNAc
In short: as §1

[16] = target: Neu5Ac(a2-3)Gal(b1-3)GlcNAc(b1-2)Man
In short: as §1

[17] = target: Neu5Ac(a2-3)Gal(b1-3)GlcNAc(b1-2)Man(a1-3)[GlcNAc(b1-4)][Neu5Ac(a2-3)Gal(b1-3)GlcNAc(b1-2)Man(a1-6)]Man(b1-4)GlcNAc(b1-4)GlcNAc
In short: as §1

[18] = target: Neu5Ac(a2-3)Gal(b1-3)GlcNAc(b1-2)Man(a1-3)[Neu5Ac(a2-3)Gal(b1-3)GlcNAc(b1-2)Man(a1-6)]Man(b1-4)GlcNAc(b1-4)GlcNAc
In short: as §1

[19] = target: Neu5Ac(a2-3)Gal(b1-3)GlcNAc(b1-3)Gal(b1-3)GlcNAc
In short: as §1

[20] = target: Neu5Ac(a2-3)Gal(b1-3)GlcNAc(b1-3)Gal(b1-4)GlcNAc
In short: as §1

[21] = target: Neu5Ac(a2-3)Gal(b1-3)GlcNAc(b1-3)GalNAc
In short: as §1

[22] = target: Neu5Ac(a2-3)Gal(b1-3)GlcNAc(b1-4)Gal(b1-4)Glc
In short: as §1

[23] = target: Neu5Ac(a2-3)Gal(b1-3)GlcNAc(b1-6)GalNAc
In short: as §1

[24] = target: Neu5Ac(a2-3)Gal(b1-3)GlcNAc6S
In short: as §1

[25] = target: Neu5Ac(a2-3)Gal(b1-3)[Fuc(a1-4)]GlcNAc
In short: as §1

[26] = target: Neu5Ac(a2-3)Gal(b1-3)[Fuc(a1-4)]GlcNAc(b1-3)Gal(b1-3)[Fuc(a1-4)]GlcNAc
In short: as §1

[27] = target: Neu5Ac(a2-3)Gal(b1-3)[Fuc(a1-4)]GlcNAc(b1-3)Gal(b1-4)[Fuc(a1-3)]GlcNAc
In short: as §1

[28] = target: Neu5Ac(a2-3)Gal(b1-3)[GlcNAc(b1-6)]GalNAc
In short: as §1

[29] = target: Neu5Ac(a2-3)Gal(b1-3)[Neu5Ac(a2-6)]GalNAc
In short: as §1

[30] = target: Neu5Ac(a2-3)Gal(b1-3)[Neu5Ac(a2-6)]GlcNAc(b1-3)[Fuc(a1-3)[Gal(b1-4)]GlcNAc(b1-6)]Gal(b1-4)Glc
In short: as §1

[31] = target: Neu5Ac(a2-3)Gal(b1-3)]Neu5Ac(a2-3)Gal(b1-4)]GlcNAc
In short: as §1

[32] = target: Neu5Ac(a2-3)Gal(b1-4)Glc
In short: as §1

[33] = target: Neu5Ac(a2-3)Gal(b1-4)GlcNAc
In short: as §1

[34] = target: Neu5Ac(a2-3)Gal(b1-4)GlcNAc(b1-2)Man
In short: as §1

[35] = target: Neu5Ac(a2-3)Gal(b1-4)GlcNAc(b1-2)Man(a1-3)[GlcNAc(b1-4)][Neu5Ac(a2-3)Gal(b1-4)GlcNAc(b1-2)Man(a1-6)]Man(b1-4)GlcNAc(b1-4)GlcNAc
In short: as §1

[36] = target: Neu5Ac(a2-3)Gal(b1-4)GlcNAc(b1-2)Man(a1-3)[Neu5Ac(a2-3)Gal(b1-4)GlcNAc(b1-2)Man(a1-6)]Man(b1-4)GlcNAc(b1-4)GlcNAc
In short: as §1

[37] = target: Neu5Ac(a2-3)Gal(b1-4)GlcNAc(b1-2)Man(a1-3)[Neu5Ac(a2-3)Gal(b1-4)GlcNAc(b1-2)Man(a1-6)]Man(b1-4)GlcNAc(b1-4)[Fuc(a1-6)]GlcNAc
In short: as §1

[38] = target: Neu5Ac(a2-3)Gal(b1-4)GlcNAc(b1-2)Man(a1-3)[Neu5Ac(a2-6)Gal(b1-4)GlcNAc(b1-2)Man(a1-6)]Man(b1-4)GlcNAc(b1-4)GlcNAc
In short: as §1

B1: AT3G44510(29) (Arabidopsis thaliana), F4J341 (protein)
chain: MEEHLQGRIKLHDGRYLAYKERGVPKDDAKFTIVLVHGFGSSKDMNFNVSQELVNEIGIYFVLYDRAGYGESDPNPKRSLKSEAYDVQELADGLEIGSRFYLIGISMGSYTVWSCLKHIPQRLAGVAMVAPVVNFRWPSIPKSLMPKDYRREVAKWSVWIANYFPGLLQWLVTQNMFSTTSMLEKNPVYFNDQDIEVLKHIKGFPMLTKEKLRERGVFGTLRSDFLVAFGDWDFDPADLPDPSLSGPEKGSSSVHIWQGYEDKVMPFQLQRCLCRKLPWIRYHEVPKGGHLIVHYDGICDAILKSLLLGEDLPMYKPKAVITEPA
B1 was tested. Which “glycan array binding signal (z-score)” value [1] did it give?
Its value is 0.071.

And the “glycan array binding signal (z-score)” value [2]?
The value was 0.202.

What about the “glycan array binding signal (z-score)” value [3] of the same binder?
The value was 0.202.

What about the “glycan array binding signal (z-score)” value [4] of the same binder?
Its value is -0.041.

And the “glycan array binding signal (z-score)” value [5]?
Its value is -0.209.

What about the “glycan array binding signal (z-score)” value [6] of the same binder?
The value was -0.552.

And the “glycan array binding signal (z-score)” value [7]?
The value was 0.16.

What about the “glycan array binding signal (z-score)” value [8] of the same binder?
Its value is -0.652.

What about the “glycan array binding signal (z-score)” value [9] of the same binder?
The value was 0.208.

And the “glycan array binding signal (z-score)” value [10]?
The value was 0.122.

And the “glycan array binding signal (z-score)” value [11]?
Its value is -0.646.

And the “glycan array binding signal (z-score)” value [12]?
Its value is -0.09.

And the “glycan array binding signal (z-score)” value [13]?
The value was -0.512.

What about the “glycan array binding signal (z-score)” value [14] of the same binder?
The value was -0.737.

What about the “glycan array binding signal (z-score)” value [15] of the same binder?
Its value is 0.49.

What about the “glycan array binding signal (z-score)” value [16] of the same binder?
Its value is 0.825.

What about the “glycan array binding signal (z-score)” value [17] of the same binder?
Its value is -0.861.

What about the “glycan array binding signal (z-score)” value [18] of the same binder?
Its value is 0.213.

And the “glycan array binding signal (z-score)” value [19]?
Its value is -0.556.

What about the “glycan array binding signal (z-score)” value [20] of the same binder?
The value was -0.064.

What about the “glycan array binding signal (z-score)” value [21] of the same binder?
The value was -0.522.

And the “glycan array binding signal (z-score)” value [22]?
The value was -0.405.

What about the “glycan array binding signal (z-score)” value [23] of the same binder?
The value was 0.556.

And the “glycan array binding signal (z-score)” value [24]?
The value was -0.564.

And the “glycan array binding signal (z-score)” value [25]?
Its value is -0.723.

And the “glycan array binding signal (z-score)” value [26]?
The value was -0.151.

What about the “glycan array binding signal (z-score)” value [27] of the same binder?
The value was 0.013.

What about the “glycan array binding signal (z-score)” value [28] of the same binder?
Its value is -0.473.

What about the “glycan array binding signal (z-score)” value [29] of the same binder?
Its value is 0.259.

What about the “glycan array binding signal (z-score)” value [30] of the same binder?
The value was -0.517.

And the “glycan array binding signal (z-score)” value [31]?
The value was 0.053.

What about the “glycan array binding signal (z-score)” value [32] of the same binder?
Its value is 0.086.

And the “glycan array binding signal (z-score)” value [33]?
The value was 0.193.

What about the “glycan array binding signal (z-score)” value [34] of the same binder?
Its value is -0.952.

What about the “glycan array binding signal (z-score)” value [35] of the same binder?
The value was 0.286.

And the “glycan array binding signal (z-score)” value [36]?
Its value is -0.22.

What about the “glycan array binding signal (z-score)” value [37] of the same binder?
The value was -0.183.

And the “glycan array binding signal (z-score)” value [38]?
The value was 2.04.
